Compound in this assay: Nc1ncnc2c1ncn2[C@@H]1O[C@H](COP(=O)(O)OP(=O)(O)OP(=O)(O)O)[C@@H](O)[C@H]1O [adenosine triphosphate]
Nature of the assay: NP40-soluble protein abundance relative to vehicle (solubility fold change) (ratio); higher = more soluble protein in presence of ATP. In outline: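 Data come from three independent experiments in which Dounce-homogenised Jurkat crude lysate was treated at eight concentrations from 0.1 to 10 mM. Treatment ran 10 min at room temperature and then 3 min at 37 °C, after which 0.8% NP40 and benzonase were added for 60 min at 4 °C before ultracentrifugation. The supernatant underwent TMT labelling and LC-MS/MS, and vsn-normalised intensities were expressed as fold change against the detergent-processed vehicle in each replicate.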

Sequences of proteins named here, by UniProt entry; tags and fusion partners are left off. A change or cut given only in a name is not applied to a line headed by its entry.
UniProt O75845: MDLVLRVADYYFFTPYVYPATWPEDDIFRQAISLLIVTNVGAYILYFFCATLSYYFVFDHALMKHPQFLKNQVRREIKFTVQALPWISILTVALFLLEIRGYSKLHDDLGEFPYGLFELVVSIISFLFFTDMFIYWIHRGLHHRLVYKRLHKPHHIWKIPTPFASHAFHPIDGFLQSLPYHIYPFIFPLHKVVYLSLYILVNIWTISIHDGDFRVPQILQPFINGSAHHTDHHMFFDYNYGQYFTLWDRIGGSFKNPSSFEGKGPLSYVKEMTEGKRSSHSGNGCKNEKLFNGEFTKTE
UniProt O95777: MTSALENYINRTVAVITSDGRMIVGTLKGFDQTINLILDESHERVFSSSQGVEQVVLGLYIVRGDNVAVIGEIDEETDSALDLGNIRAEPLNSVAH
UniProt O95197: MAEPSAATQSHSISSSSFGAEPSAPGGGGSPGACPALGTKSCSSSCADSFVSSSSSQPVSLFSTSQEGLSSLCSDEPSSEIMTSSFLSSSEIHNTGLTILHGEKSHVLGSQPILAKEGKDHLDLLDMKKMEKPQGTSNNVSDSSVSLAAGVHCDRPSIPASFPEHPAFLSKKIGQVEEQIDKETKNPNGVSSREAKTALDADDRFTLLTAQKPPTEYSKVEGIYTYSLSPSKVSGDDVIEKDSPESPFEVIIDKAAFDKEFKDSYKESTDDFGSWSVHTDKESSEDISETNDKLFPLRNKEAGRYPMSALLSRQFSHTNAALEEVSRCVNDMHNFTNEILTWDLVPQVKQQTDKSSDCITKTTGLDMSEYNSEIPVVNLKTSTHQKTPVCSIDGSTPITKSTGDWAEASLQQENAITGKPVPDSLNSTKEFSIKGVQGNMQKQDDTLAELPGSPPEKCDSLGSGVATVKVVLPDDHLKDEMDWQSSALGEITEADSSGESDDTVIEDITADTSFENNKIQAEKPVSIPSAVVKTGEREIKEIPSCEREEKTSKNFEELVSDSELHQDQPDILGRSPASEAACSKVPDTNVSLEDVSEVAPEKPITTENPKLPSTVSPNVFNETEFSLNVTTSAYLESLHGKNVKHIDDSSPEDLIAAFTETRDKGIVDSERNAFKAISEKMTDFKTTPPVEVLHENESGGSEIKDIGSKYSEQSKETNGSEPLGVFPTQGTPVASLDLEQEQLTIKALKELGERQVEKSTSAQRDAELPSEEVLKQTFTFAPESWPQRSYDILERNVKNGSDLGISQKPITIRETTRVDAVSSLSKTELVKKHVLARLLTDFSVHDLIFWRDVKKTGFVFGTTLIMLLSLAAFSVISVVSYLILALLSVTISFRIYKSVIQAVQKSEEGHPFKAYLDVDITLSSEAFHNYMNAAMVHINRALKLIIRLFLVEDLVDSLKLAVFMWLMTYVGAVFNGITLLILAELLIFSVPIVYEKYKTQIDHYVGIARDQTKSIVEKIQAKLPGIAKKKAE
UniProt O75475: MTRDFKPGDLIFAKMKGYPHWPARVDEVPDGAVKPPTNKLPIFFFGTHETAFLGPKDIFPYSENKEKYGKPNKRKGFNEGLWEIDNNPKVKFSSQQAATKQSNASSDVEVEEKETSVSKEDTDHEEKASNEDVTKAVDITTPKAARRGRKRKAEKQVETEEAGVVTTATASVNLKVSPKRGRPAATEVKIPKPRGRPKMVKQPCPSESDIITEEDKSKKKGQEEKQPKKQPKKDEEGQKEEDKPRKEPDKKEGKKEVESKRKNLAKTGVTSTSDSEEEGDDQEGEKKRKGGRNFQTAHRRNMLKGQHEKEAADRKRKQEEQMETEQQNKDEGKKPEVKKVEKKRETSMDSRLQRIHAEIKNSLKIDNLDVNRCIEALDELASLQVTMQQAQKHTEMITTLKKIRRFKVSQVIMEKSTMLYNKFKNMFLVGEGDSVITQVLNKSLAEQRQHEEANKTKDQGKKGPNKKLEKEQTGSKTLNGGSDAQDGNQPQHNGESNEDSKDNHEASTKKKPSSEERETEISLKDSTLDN
UniProt O75683: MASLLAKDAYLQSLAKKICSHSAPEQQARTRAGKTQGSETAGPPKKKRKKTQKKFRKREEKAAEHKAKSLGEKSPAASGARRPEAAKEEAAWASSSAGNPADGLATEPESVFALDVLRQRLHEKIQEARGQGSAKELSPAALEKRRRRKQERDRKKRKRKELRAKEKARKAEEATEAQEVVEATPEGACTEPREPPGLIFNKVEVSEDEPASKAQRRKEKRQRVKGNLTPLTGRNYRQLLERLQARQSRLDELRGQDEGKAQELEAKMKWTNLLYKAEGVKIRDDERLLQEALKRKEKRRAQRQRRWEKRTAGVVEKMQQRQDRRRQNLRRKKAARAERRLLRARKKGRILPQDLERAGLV
UniProt O95297: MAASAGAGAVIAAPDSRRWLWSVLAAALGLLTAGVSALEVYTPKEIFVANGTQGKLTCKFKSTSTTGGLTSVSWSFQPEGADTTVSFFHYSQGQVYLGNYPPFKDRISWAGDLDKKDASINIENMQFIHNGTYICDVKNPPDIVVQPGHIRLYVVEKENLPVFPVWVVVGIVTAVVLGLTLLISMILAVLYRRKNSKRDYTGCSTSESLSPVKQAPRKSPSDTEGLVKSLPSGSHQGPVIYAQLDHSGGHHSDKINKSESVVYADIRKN
UniProt O75525: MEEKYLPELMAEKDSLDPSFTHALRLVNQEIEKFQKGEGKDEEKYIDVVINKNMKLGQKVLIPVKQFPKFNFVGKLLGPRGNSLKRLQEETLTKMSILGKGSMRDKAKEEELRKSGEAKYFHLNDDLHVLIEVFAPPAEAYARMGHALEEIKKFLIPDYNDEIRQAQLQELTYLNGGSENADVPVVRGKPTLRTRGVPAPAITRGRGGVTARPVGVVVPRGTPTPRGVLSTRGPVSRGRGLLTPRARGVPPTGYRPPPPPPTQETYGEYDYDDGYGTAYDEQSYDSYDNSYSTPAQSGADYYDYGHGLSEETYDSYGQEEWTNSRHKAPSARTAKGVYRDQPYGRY
UniProt O95394: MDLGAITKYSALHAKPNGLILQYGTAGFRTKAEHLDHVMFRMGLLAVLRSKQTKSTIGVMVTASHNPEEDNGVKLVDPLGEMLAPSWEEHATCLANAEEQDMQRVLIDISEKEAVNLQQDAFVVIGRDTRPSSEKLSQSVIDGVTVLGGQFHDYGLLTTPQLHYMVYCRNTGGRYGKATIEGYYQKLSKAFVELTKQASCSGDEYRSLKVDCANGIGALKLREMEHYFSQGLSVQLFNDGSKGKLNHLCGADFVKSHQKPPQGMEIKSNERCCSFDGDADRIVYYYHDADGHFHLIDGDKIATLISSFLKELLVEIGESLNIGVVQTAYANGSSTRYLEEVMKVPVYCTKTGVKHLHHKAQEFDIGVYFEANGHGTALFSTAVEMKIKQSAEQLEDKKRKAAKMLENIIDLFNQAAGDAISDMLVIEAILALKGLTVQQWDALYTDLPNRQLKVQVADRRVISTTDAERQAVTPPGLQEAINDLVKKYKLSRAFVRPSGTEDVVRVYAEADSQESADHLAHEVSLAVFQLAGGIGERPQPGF
UniProt O60784, whole entry: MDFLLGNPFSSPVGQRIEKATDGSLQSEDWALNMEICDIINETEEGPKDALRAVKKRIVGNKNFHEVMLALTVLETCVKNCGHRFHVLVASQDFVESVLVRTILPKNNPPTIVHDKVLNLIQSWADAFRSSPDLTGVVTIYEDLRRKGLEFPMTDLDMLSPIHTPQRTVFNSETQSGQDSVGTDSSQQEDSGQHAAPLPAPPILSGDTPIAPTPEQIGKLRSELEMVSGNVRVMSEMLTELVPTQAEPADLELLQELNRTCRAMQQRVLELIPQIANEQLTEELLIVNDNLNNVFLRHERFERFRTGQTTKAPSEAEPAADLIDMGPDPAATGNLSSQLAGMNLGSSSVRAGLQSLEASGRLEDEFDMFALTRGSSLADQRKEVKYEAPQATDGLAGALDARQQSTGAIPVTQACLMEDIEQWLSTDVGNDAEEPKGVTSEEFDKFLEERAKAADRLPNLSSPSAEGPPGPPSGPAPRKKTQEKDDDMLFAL
UniProt O94901, whole entry: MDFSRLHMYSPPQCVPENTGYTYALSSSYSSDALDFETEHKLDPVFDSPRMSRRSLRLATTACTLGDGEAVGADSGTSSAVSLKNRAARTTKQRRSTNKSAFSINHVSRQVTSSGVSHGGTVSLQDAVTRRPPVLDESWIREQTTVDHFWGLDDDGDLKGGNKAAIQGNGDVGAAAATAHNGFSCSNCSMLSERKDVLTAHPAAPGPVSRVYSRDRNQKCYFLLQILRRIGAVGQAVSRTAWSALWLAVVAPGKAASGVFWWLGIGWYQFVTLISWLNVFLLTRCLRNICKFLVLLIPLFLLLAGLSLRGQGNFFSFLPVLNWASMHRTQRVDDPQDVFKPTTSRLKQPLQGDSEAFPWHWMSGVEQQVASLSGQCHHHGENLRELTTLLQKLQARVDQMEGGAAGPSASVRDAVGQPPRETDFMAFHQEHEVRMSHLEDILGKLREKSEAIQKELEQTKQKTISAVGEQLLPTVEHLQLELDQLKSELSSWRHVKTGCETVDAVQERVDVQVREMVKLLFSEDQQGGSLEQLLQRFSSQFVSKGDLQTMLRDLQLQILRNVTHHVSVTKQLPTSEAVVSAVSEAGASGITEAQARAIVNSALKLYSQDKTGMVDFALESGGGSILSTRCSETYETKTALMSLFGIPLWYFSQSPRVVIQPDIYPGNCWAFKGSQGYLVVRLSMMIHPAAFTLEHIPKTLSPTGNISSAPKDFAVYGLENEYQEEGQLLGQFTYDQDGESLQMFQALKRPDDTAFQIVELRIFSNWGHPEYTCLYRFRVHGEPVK
UniProt O95273: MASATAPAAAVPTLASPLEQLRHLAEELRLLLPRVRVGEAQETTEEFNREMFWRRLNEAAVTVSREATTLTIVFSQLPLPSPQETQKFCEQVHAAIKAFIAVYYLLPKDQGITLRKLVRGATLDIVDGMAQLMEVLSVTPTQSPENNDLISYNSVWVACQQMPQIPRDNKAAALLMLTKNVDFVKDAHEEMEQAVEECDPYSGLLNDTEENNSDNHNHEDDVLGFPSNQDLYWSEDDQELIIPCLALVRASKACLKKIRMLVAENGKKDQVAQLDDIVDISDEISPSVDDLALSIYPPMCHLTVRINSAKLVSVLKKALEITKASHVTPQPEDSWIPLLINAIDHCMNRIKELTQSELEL
UniProt O95544: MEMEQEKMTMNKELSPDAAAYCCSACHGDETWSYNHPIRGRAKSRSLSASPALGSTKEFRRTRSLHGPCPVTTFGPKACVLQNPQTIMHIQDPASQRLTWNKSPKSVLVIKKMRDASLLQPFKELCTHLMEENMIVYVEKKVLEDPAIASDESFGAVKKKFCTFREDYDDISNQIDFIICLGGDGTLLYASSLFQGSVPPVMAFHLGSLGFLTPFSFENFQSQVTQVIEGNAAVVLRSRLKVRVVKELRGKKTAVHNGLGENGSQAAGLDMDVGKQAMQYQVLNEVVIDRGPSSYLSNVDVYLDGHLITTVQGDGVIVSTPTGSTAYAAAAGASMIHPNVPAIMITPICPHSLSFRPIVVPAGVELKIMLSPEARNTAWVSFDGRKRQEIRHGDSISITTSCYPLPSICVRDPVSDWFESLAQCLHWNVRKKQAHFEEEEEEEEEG
UniProt O60669: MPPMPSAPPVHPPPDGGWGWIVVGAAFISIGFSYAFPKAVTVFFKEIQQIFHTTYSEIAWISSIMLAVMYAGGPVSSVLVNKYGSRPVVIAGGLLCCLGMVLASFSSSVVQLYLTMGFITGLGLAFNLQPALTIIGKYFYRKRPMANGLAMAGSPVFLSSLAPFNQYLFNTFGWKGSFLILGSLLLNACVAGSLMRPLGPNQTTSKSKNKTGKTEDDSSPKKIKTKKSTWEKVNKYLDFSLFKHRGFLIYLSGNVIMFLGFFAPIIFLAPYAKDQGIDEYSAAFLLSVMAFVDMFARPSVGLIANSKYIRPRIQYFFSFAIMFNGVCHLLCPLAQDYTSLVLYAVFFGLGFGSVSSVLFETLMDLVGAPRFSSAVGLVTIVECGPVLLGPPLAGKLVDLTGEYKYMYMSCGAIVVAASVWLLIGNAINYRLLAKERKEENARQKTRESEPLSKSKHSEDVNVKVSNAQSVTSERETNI

± gives the standard deviation of the averaged measurements. This is a selection; strong and weak results do not stand in their true shares. Most values lie at the level of the controls, where differences are scatter.

Take UniProt O75845: the NP40-soluble protein abundance runs as follows: (concentration: 0.1mM) 1.09 ± 0.018; (concentration: 0.5mM) 1.01 ± 0.044.
For UniProt O95777 the same measures were 1.04 ± 0.045 and 1 ± 0.13.
For UniProt O75808 and related entries the same measures were 0.994 ± 0.094 and 0.945 ± 0.049.
Taken in the same sequence, the figures for UniProt O94913 and related entries were 0.9973 ± 0.0079 and 1.04 ± 0.052.
As for SNX3 (UniProt O60493), the NP40-soluble protein abundance turned out to be 0.965 ± 0.082 (concentration: 0.1mM) and 0.944 ± 0.098 (concentration: 0.5mM).
With UniProt O95197 and related entries, the NP40-soluble protein abundance was determined as 0.924 ± 0.037 (concentration: 0.1mM) and 0.921 ± 0.038 (concentration: 0.5mM).
Taken in the same sequence, the figures for UniProt O60861 were 1.01 ± 0.041 and 1.04 ± 0.066.
For AHSA1 (UniProt O95433) the same measures were 1.02 ± 0.08 and 1.05 ± 0.071.
For UniProt O75398 and related entries the same measures were 1.01 ± 0.072 and 0.992 ± 0.049.
As for UniProt O75460, the NP40-soluble protein abundance runs as follows: (concentration: 0.1mM) 1.02 ± 0.045; (concentration: 0.5mM) 1.02 ± 0.082.
For ZFPL1 (UniProt O95159) the same measures were 0.999 ± 0.1 and 0.964 ± 0.044.
Turning to UniProt O76095 and related entries, the NP40-soluble protein abundance (concentration: 0.1mM) amounted to 0.903 ± 0.086 and the NP40-soluble protein abundance (concentration: 0.5mM) turned out to be 0.936 ± 0.03.
For UniProt O95169 and related entries, the NP40-soluble protein abundance (concentration: 0.1mM) amounted to 0.902 ± 0.095 and the NP40-soluble protein abundance (concentration: 0.5mM) came out at 0.874 ± 0.15.
For KPNA6 (UniProt O60684) the same measures were 1.045 ± 0.0079 and 1.05 ± 0.027.
Taken in the same sequence, the figures for UniProt O75879 and related entries were 0.994 ± 0.024 and 0.997 ± 0.046.
Taken in the same sequence, the figures for FARS2 (UniProt O95363) were 1.03 ± 0.046 and 1.03 ± 0.079.
Consider UniProt O75381 and related entries, for which the NP40-soluble protein abundance (concentration: 0.1mM) was determined as 0.912 ± 0.066 and the NP40-soluble protein abundance (concentration: 0.5mM) was found to be 0.828 ± 0.14.
For DNAJC8 (UniProt O75937) the same measures were 0.947 ± 0.094 and 0.919 ± 0.08.
Taken in the same sequence, the figures for UniProt O75475 and related entries were 1 ± 0.045 and 1.1 ± 0.061.
For MOCS3 (UniProt O95396) the same measures were 1.03 ± 0.047 and 1 ± 0.065.
UniProt O75608 and related entries: the NP40-soluble protein abundance by setting is: (concentration: 0.1mM) 0.933 ± 0.03; (concentration: 0.5mM) 0.897 ± 0.09.
Taken in the same sequence, the figures for PSMG1 (UniProt O95456) were 0.991 ± 0.067 and 0.99 ± 0.018.
Turning to MTA2 (UniProt O94776), the NP40-soluble protein abundance was 1.02 ± 0.029 (concentration: 0.1mM) and 1.06 ± 0.069 (concentration: 0.5mM).
Consider SURF6 (UniProt O75683), for which the NP40-soluble protein abundance reads like this: (concentration: 0.1mM) 0.953 ± 0.081; (concentration: 0.5mM) 0.933 ± 0.045.
For UniProt O95297 and related entries the same measures were 0.889 ± 0.028 and 0.938 ± 0.029.
Taken in the same sequence, the figures for UniProt O75525 and related entries were 1.04 ± 0.019 and 1.03 ± 0.016.
Take VPS26A (UniProt O75436): the NP40-soluble protein abundance reads like this: (concentration: 0.1mM) 1.08 ± 0.11; (concentration: 0.5mM) 1.06 ± 0.13.
Taken in the same sequence, the figures for UniProt O95394 and related entries were 1.05 ± 0.056 and 1.04 ± 0.05.
Taken in the same sequence, the figures for STAMBP (UniProt O95630) were 1.03 ± 0.044 and 1.03 ± 0.048.
For TOM1 (UniProt O60784) the same measures were 0.936 ± 0.054 and 0.897 ± 0.032.
For RPP14 (UniProt O95059), the NP40-soluble protein abundance (concentration: 0.1mM) was 0.988 ± 0.11 and the NP40-soluble protein abundance (concentration: 0.5mM) is 1.015 ± 0.0026.
For UniProt O60749 and related entries the same measures were 0.988 ± 0.029 and 1.02 ± 0.06.
DKC1 (UniProt O60832): the NP40-soluble protein abundance (concentration: 0.1mM) amounted to 1.03 ± 0.059 and the NP40-soluble protein abundance (concentration: 0.5mM) worked out at 1.01 ± 0.044.
On to UniProt O75648 and related entries, for which the NP40-soluble protein abundance (concentration: 0.1mM) was 1 ± 0.18 and the NP40-soluble protein abundance (concentration: 0.5mM) was found to be 1.05 ± 0.16.
For the target UniProt O95466-2, the NP40-soluble protein abundance (concentration: 0.1mM) amounted to 0.94 ± 0.011 and the NP40-soluble protein abundance (concentration: 0.5mM) stood at 0.983 ± 0.063.
For AGFG2 (UniProt O95081) the same measures were 0.973 ± 0.066 and 1 ± 0.15.
For KBTBD11 (UniProt O94819) the same measures were 1.01 ± 0.033 and 0.98 ± 0.04.
For PALM (UniProt O75781) the same measures were 0.96 ± 0.025 and 0.928 ± 0.033.
Regarding UniProt O75071, the NP40-soluble protein abundance turned out to be 1.01 ± 0.13 (concentration: 0.1mM) and 0.969 ± 0.11 (concentration: 0.5mM).
Taken in the same sequence, the figures for PPP1R11 (UniProt O60927) were 1 ± 0.06 and 1.01 ± 0.079.
For UniProt O75179 and related entries the same measures were 0.971 ± 0.025 and 0.965 ± 0.045.
Taken in the same sequence, the figures for BRD4 (UniProt O60885) were 1 ± 0.028 and 1.04 ± 0.047.
UniProt O75367 and related entries: the NP40-soluble protein abundance is, setting by setting: (concentration: 0.1mM) 0.9042 ± 0.0054; (concentration: 0.5mM) 0.884 ± 0.02.
For UniProt O95487 and related entries the same measures were 1.06 ± 0.035 and 1.06 ± 0.024.
For ARL6IP5 (UniProt O75915) the same measures were 1.01 ± 0.069 and 1.04 ± 0.073.
Taken in the same sequence, the figures for UniProt O60566 and related entries were 1.02 ± 0.021 and 1.01 ± 0.054.
For the target “UniProt O94901-9|E9PHI4 and related entries”, the NP40-soluble protein abundance is, setting by setting: (concentration: 0.1mM) 1.03 ± 0.18; (concentration: 0.5mM) 1.07 ± 0.13.
Take PLOD3 (UniProt O60568): the NP40-soluble protein abundance stood at 1.06 ± 0.045 (concentration: 0.1mM) and 1.01 ± 0.057 (concentration: 0.5mM).
For UniProt O94804 the same measures were 0.999 ± 0.023 and 1.01 ± 0.034.
Taken in the same sequence, the figures for UniProt O95273 and related entries were 0.923 ± 0.095 and 0.91 ± 0.078.
For NADK (UniProt O95544) the same measures were 1.03 ± 0.057 and 0.941 ± 0.026.
For the target DDHD2 (UniProt O94830), the NP40-soluble protein abundance is 1.04 ± 0.023 (concentration: 0.1mM) and 1.015 ± 0.01 (concentration: 0.5mM).
For “UniProt O95248-4|G5E933 and related entries” the same measures were 1.04 ± 0.055 and 1.02 ± 0.038.
For SLC16A7 (UniProt O60669) the same measures were 0.972 ± 0.017 and 0.944 ± 0.0098.
Taken in the same sequence, the figures for UniProt O75164 were 1.1 ± 0.038 and 1.11 ± 0.085.
For SS18L1 (UniProt O75177), the NP40-soluble protein abundance came to 0.967 ± 0.12 (concentration: 0.1mM) and 1.01 ± 0.027 (concentration: 0.5mM).
As to UniProt O60506 and related entries, the NP40-soluble protein abundance amounted to 0.989 ± 0.035 (concentration: 0.1mM) and 0.965 ± 0.022 (concentration: 0.5mM).
As for GMDS (UniProt O60547), the NP40-soluble protein abundance is, setting by setting: (concentration: 0.1mM) 1.07 ± 0.11; (concentration: 0.5mM) 1.06 ± 0.1.
Taken in the same sequence, the figures for UniProt O75486 and related entries were 1.03 ± 0.12 and 1.12 ± 0.068.
On to UniProt O95628 and related entries, for which the NP40-soluble protein abundance is 1 ± 0.028 (concentration: 0.1mM) and 0.984 ± 0.014 (concentration: 0.5mM).

Source of the values: the supplement of paper PMC6411743.
